No constants are given. Whether binding was seen depends on the method and setting. In cells and extracts the contact can be indirect. Binding calls can cover weak binding; strength is not graded here.
Key:
[1] = target: Myc-tagged IQ3 (aa806-825)-deleted IQGAP1 (UniProt P46940); assay: co-IP; Myc-tagged IQGAP1 WT or ΔIQ3 transfected in HEK293FT (Fig. 3a, Supplementary Fig. 6a) or UM-SCC47 (Fig. 4d) cells, starved 24 h, with or without 10 ng/ml EGF 15 min; lysis in 25 mM Tris-HCl pH 7.4, 150 mM NaCl, 1 mM EDTA, 1% NP-40, 5% glycerol; anti-c-Myc agarose 2 h at 4 °C; endogenous partners by blot
[2] = target: Myc-tagged IQ3 (aa806-825)-deleted IQGAP1 (UniProt P46940); assay: proximity ligation; UM-SCC47/HEK293FT cells transfected with Myc-tagged IQGAP1 WT or ΔIQ3, starved 24 h, with or without 10 ng/ml EGF 15 min, fixed in 4% PFA; Duolink in situ kit; Myc tag against the endogenous partner

The chains behind the UniProt entries cited, without tags or fusion partners. Where a name states a change or a piece, a line headed by the entry shows the natural chain unless it says otherwise.
UniProt P46940: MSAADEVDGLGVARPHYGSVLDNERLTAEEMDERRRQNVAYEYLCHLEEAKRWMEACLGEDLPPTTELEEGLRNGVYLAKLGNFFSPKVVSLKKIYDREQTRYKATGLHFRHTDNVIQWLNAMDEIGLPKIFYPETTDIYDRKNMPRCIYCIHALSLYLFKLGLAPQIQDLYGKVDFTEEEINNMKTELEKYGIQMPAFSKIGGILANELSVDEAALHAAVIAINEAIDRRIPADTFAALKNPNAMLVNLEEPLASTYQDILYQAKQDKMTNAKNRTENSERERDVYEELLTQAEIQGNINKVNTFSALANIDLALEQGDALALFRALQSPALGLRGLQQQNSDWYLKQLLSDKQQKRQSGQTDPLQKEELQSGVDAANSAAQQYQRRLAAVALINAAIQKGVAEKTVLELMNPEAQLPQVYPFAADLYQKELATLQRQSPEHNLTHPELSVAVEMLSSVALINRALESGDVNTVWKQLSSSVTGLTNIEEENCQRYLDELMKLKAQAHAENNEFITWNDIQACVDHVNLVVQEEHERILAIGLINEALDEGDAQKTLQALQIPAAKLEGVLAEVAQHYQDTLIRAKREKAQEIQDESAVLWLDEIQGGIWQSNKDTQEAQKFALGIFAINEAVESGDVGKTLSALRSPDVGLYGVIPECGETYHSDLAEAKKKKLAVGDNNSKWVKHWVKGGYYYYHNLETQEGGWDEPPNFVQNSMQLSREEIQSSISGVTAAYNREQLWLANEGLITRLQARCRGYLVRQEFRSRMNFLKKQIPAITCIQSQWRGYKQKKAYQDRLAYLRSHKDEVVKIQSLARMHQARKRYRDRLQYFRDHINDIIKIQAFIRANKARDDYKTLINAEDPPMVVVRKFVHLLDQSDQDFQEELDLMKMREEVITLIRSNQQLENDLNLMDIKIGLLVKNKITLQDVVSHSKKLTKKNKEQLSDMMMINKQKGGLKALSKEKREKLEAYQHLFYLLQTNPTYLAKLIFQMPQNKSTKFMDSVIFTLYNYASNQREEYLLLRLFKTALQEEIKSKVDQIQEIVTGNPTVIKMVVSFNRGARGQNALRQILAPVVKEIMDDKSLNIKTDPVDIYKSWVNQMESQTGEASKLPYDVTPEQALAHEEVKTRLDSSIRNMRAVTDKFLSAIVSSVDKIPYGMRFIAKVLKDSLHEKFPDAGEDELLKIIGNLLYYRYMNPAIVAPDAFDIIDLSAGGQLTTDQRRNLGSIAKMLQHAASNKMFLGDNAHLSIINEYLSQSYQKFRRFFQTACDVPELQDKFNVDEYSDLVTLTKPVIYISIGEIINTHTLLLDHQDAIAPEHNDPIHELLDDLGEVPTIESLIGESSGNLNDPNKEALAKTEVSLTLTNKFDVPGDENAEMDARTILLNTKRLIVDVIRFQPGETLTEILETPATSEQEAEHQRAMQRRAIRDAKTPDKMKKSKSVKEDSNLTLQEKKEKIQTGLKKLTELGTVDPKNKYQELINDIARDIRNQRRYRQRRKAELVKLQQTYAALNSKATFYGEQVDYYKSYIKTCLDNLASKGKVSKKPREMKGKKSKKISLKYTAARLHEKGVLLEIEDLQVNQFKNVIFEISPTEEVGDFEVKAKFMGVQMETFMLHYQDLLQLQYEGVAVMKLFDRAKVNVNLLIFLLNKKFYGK
UniProt P27986: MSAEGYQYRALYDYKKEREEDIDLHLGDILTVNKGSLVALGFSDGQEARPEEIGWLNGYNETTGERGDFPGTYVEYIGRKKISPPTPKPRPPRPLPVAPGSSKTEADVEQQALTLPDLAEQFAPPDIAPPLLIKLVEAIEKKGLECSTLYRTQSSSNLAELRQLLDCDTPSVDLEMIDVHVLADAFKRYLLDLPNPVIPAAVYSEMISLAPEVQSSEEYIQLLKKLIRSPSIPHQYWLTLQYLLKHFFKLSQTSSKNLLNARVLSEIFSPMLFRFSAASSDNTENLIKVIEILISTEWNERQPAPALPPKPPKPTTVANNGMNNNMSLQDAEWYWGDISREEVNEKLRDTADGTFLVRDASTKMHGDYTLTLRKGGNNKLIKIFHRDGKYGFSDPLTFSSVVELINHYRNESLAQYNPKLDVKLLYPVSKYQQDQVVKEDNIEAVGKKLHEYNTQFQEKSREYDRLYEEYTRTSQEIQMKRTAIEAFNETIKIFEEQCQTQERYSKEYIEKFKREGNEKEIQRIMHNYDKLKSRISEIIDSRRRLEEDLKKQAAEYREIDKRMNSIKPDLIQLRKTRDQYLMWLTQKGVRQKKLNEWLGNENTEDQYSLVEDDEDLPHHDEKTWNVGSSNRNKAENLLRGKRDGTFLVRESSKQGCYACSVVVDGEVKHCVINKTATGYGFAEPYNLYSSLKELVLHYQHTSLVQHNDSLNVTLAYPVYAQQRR

binding [1] | binding [2] | Substance
binds | binds | Epidermal growth factor receptor (EGFR) (from UniProt P00533 25-1210)
binds | binds | p85α regulatory subunit of PI3K (from UniProt P27986 1-724)

Reference: publication PMC6591252
